Experimental data from US20180000964A1 (Genentech, published 2018).
These are yes or no findings as the source states them, for the method shown. Some results given as binding are weak or reduced against the parent protein; the word gives no strength.

Key:
murine Glut1 (on cells) [1] = target: T1, murine Glut1 (on cells) (murine, UniProt P17809 1-492); experiment: flow cytometry titration, HEK293 cells stably expressing Glut1
T1 construct: whole, on cells; also called glucose transporter 1; Slc2a1
T1 sequence (looked up): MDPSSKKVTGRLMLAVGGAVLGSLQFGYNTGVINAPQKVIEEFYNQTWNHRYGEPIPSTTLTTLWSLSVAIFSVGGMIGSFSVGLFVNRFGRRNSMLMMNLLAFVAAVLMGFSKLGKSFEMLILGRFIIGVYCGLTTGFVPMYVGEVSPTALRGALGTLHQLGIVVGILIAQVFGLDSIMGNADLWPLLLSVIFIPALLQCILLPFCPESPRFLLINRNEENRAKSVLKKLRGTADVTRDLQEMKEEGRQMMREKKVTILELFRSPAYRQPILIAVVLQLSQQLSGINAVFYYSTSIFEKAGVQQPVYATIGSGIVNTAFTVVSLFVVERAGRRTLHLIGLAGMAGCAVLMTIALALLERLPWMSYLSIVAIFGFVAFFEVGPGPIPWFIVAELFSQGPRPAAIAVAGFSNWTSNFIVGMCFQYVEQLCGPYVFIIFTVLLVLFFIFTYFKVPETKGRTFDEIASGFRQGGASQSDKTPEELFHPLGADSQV

murine Glut1 (on cells) [2] = target: T1, murine Glut1 (on cells); experiment: flow cytometry, HEK293 cells stably expressing Glut1
murine Glut1 (on cells) [3] = target: T1, murine Glut1 (on cells); experiment: flow cytometry, HEK293 cells expressing Glut1, PE-labelled secondary antibody
murine Glut1 (on cells) [4] = target: T1, murine Glut1 (on cells); experiment: flow cytometry, HEK293 cells transiently expressing murine Glut1
murine Glut1 (on cells) [5] = target: T1, murine Glut1 (on cells); experiment: immunohistochemistry of mouse cortical tissue 1 hour after 5 mg/kg i.v. dose (in vivo binding)

Measured: binding

B1: anti-Glut1 antibody (antibody, V domains shown)
VH: QVQLQQPGSVLVRPGASVKLSCKASGYTFTGSWLHWAKQRPGQGLEWIGEIHPYSGNTNYNERFKGKATLTVDTPSSTAYVDLRSLTFEDSAVYYCAKEGGWFLRIYGMDYWGQGTSVTVSS
VL: DIVLTQSPSSLSASLGDTITITCHASQNINVWLSWYQQKPGNIPKLLIYKASNLHSGVPSRFSGSGSGTGFTLTISSLQPEDIATYYCQQGQTFPYTFGGGTRLEIK
notes: Raised by DNA immunization with hGlut1 cDNA; also called bivalent (monospecific) anti-Glut1
binds: all assays above
